The supplement of paper PMC12873370
Several values for one entry are separate records, joined by “and”; a condition that tells them apart may be missing. Identical values can stand only once. This is one part of the list. Repeats are few or missing, and single values can be far off.

Key:
[1] = tested on: MEPP (mouse ovarian epithelium Trp53/Pten KO); experiment: cell viability relative to untreated (fraction); higher = less growth inhibition; details: 5 µM; 3 days
[2] = tested on: PREPP (mouse prostate epithelium Trp53/Pten KO); experiment: as above; details: 5 µM; 3 days

Compound | cell viability [1] | cell viability [2]
O=c1cc[nH]c(=O)[nH]1 | 1.26 | 0.954
CCCCC[C@H](O)/C=C/[C@H]1[C@H](O)CC(=O)[C@@H]1CCCCCCC(=O)O | 0.823 | 0.897
Cc1cc(SCc2sc(-c3ccc(C(F)(F)F)cc3)nc2C)ccc1OCC(=O)O | 1.05 | 0.961
C=CC1=C(C)/C(=C/c2[nH]c(Cc3[nH]c(/C=C4\NC(=O)C(C)=C4C=C)c(C)c3CCC(=O)O)c(CCC(=O)O)c2C)NC1=O | 1.14 | 1.01
CC(CC(=O)O)C(=O)O (stereo unspecified) | 0.941 | 1
Cc1cc(=O)c2c(O)c3c(cc2o1)OC(C)(C)[C@@H](O[C@@H]1O[C@H](CO)[C@@H](O)[C@H](O)[C@H]1O)C3 | 0.997 | 1.05
CC(=O)N[C@@H](Cc1ccccc1)C(=O)O | 1.09 | 0.974
COc1cc(O)cc(OC)c1 | 0.966 | 1.09
CCCCCCCC(=O)c1c(O)cc(O)cc1CC(=O)OCC | 1.04 | 0.974
CCC[C@@H]1C[C@@H](C(=O)N[C@@H]([C@H]2O[C@H](SC)[C@H](O)[C@@H](O)[C@H]2O)[C@H](C)Cl)N(C)C1 | 1.1 and 1.11 | 1.03 and 0.961
CC[C@@H](CO)NCCN[C@@H](CC)CO | 1.1 | 0.981
COc1ccccc1OCC(O)CO (stereo unspecified) | 1.1 | 0.957
C[N+](C)(C)CCOP(=O)([O-])OC[C@H](O)CO | 1.05 | 1.02
O=C(N[C@H](CO)[C@H](O)c1ccc([N+](=O)[O-])cc1)C(Cl)Cl | 1.15 | 0.932
CC[C@@H](N)C(=O)O | 0.99 | 0.838
Nc1ncnc2c1ncn2[C@@H]1O[C@H](CSCC[C@H](N)C(=O)O)[C@@H](O)[C@H]1O | 0.76 | 1.07
COc1ccc(CC(=O)O)cc1O | 0.879 | 1.33
CC[C@H](C)[C@H](N)C1=N[C@H](C(=O)N[C@@H](CC(C)C)C(=O)N[C@H](CCC(=O)O)C(=O)N[C@H](C(=O)N[C@H]2CCCCNC(=O)[C@H](CC(N)=O)NC(=O)[C@@H](CC(=O)O)NC(=O)[C@H](Cc3cnc[nH]3)NC(=O)[C@@H](Cc3ccccc3)NC(=O)[C@H]([C@@H](C)CC)NC(=O)[C@@H](CCCN)NC2=O)[C@@H](C)CC)CS1 | 0.946 | 0.832
O=C(O)c1cn(C2CC2)c2cc(N3CCNCC3)c(F)cc2c1=O | 1.06 | 0.872
O=C([O-])C(O)[C@H](O)[C@@H](O)[C@H](O)[C@H](O)CO.O=C([O-])C(O)[C@H](O)[C@@H](O)[C@H](O)[C@H](O)CO.[Ca+2] (stereo partly specified) | 1.05 | 0.922
CC1=C(C(=O)O)N2C(=O)[C@@H](NC(=O)[C@H](N)c3ccc(O)cc3)[C@H]2SC1 | 0.918 | 0.895

Compound | cell viability [1] | cell viability [2]
CCc1c2c(nc3ccc(O)cc13)-c1cc3c(c(=O)n1C2)COC(=O)[C@]3(O)CC | 0.636 | 0.717
CC1CCC(C(C)C)C(O)C1 (stereo unspecified) | 1.03 | 1.41
Cc1cnc(=O)[nH]c1N | 0.888 | 1.24
COc1ccc(/C=C\c2cc(OC)c(OC)c(OC)c2)cc1O | 0.476 | 0.685
O=C(O)/C=C(\CC(=O)O)C(=O)O | 1.02 | 0.992
OC[C@H]1O[C@@](CO)(O[C@H]2O[C@H](CO)[C@@H](O)[C@H](O)[C@H]2O)[C@@H](O)[C@@H]1O | 1.19 | 0.884
COc1cc(C(C)=O)cc(OC)c1O | 0.9 | 1.07
Nc1[nH]cnc2ncnc1-2 | 0.925 and 1.12 and 1.05 | 1.12 and 1.04 and 1.11
O=C(O)C1CCC(O)CC1 (stereo unspecified) | 0.843 | 1.2
COc1ccc(-c2cc(=O)c3c(OC)c(OC)c(OC)c(OC)c3o2)cc1 | 1.01 | 0.913
CC(=O)NC(CCCN)C(=O)O (stereo unspecified) | 1.04 | 1.07
Cc1cccc2c3c(ccc12)C1=C(C(=O)C3=O)[C@@H](C)CO1 | 0.946 | 1.07
COc1ccc(C[C@@H]2c3cc(Oc4cc(C[C@@H]5c6cc(OC)c(OC)cc6CCN5C)ccc4O)c(OC)cc3CCN2C)cc1 | 0.946 | 1.23
Cc1ncc([N+](=O)[O-])n1CCO | 0.962 | 1.01
COc1cccc(OC)c1C(=O)OCc1cc(O)ccc1O[C@@H]1O[C@H](CO)[C@@H](O)[C@H](O)[C@H]1O | 1.09 | 0.872
C[C@@H](O)[C@H](N)C(=O)O | 0.922 | 0.997
CN[C@H](CC(C)C)C(=O)N[C@H]1C(=O)N[C@@H](CC(N)=O)C(=O)N[C@H]2C(=O)N[C@H]3C(=O)N[C@H](C(=O)N[C@H](C(=O)O)c4cc(O)cc(O)c4-c4cc3ccc4O)[C@H](O)c3ccc(c(Cl)c3)Oc3cc2cc(c3O[C@@H]2O[C@H](CO)[C@@H](O)[C@H](O)[C@H]2O[C@H]2C[C@](C)(N)[C@H](O)[C@H](C)O2)Oc2ccc(cc2Cl)[C@H]1O | 0.896 | 0.916
COc1cc2c(c(OC)c1OC)-c1c(cc(OC)c(OC)c1OC)CC(C)C(C)C2 (stereo unspecified) | 1.51 | 0.911
COC(=O)C1=CO[C@@H](O[C@@H]2O[C@H](CO)[C@@H](O)[C@H](O)[C@H]2O)[C@@H]2[C@H](C)O[C@@H](O)C[C@H]12 | 1.12 | 1.06
O=C(O)/C=C/C(=O)O | 1.09 | 0.919
COc1c2c(cc3oc(CO)cc(=O)c13)O[C@H](C(C)(C)O)C2 | 1.37 | 0.906

Compound | cell viability [1] | cell viability [2]
C[C@@H](CC[C@@]1(O)O[C@H]2C[C@H]3[C@@H]4CC[C@@H]5C[C@@H](O[C@@H]6O[C@H](CO)[C@H](O)[C@H](O)[C@H]6O[C@@H]6O[C@H](CO)[C@@H](O)[C@H](O)[C@H]6O)CC[C@]5(C)[C@H]4CC[C@]3(C)[C@H]2[C@@H]1C)CO[C@@H]1O[C@H](CO)[C@@H](O)[C@H](O)[C@H]1O | 0.964 | 0.693
Nc1ccc(S(=O)(=O)Nc2cnc3ccccc3n2)cc1 | 0.885 | 1.2
CC1(C)C2CCC1(C)C(O)C2 (stereo unspecified) | 1.16 | 0.859
O=C(O)CCc1ccccc1 | 1.69 | 1
CNC[C@H](O)c1ccc(O)c(O)c1 | 0.929 and 1.16 | 0.931 and 0.92
C[C@]12CC[C@@H]3c4ccc(O)cc4CC[C@H]3[C@@H]1CCC2=O | 1.1 | 0.86
O=c1c(O)c(-c2ccccc2)oc2cc(O)cc(O)c12 | 0.979 | 0.979
CN1c2ccccc2C(=O)N2CCc3c([nH]c4ccccc34)[C@@H]21 | 1.01 | 0.925
COc1ccc2c3c1O[C@H]1C[C@@H](O)C=C[C@@]31CCN(C)C2 | 1.2 and 1.14 | 0.742 and 0.86
CCc1ccc(O)cc1 | 1.17 | 0.858
O=C1Cc2ccccc2N1 | 0.835 | 0.856
NC(=O)Cc1c[nH]c2ccccc12 | 1.07 | 1.06
C[C@@H]1C[C@H]2[C@@H]3CCC4=CC(=O)C=C[C@]4(C)[C@@]3(F)[C@@H](O)C[C@]2(C)[C@@]1(O)C(=O)CO | 1.23 | 0.906
CCCCCCCCCC(=O)O | 1.01 | 1.08
CC(N)=O | 1.09 | 0.93
CCCCCCCC/C=C\CCCCCCCC(=O)O | 1.11 | 0.987
COc1ccc2ccc(=O)oc2c1 | 0.933 | 1.07
Cc1cn([C@@H]2O[C@H](CO)[C@@H](O)[C@H]2O)c(=O)nc1N | 1.04 | 0.881
Nc1nc(Cl)nc2c1ncn2[C@H]1C[C@H](O)[C@@H](CO)O1 | 0.916 | 1.03
O=C(/C=C/c1ccc(O)cc1)OC[C@H]1O[C@@H](Oc2c(-c3ccc(O)cc3)oc3cc(O)cc(O)c3c2=O)[C@H](O)[C@@H](O)[C@@H]1O | 0.988 | 0.867
CN(CC(=O)O)C(=N)N | 0.984 and 0.902 | 1.08 and 0.89

Compound | cell viability [1] | cell viability [2]
COc1cnc(NS(=O)(=O)c2ccc(N)cc2)nc1 | 0.819 | 0.901
O=C1Nc2ccccc2/C1=C1/Nc2ccccc2C1=O | 0.801 | 0.853
CS(=O)(=O)CCNCc1ccc(-c2ccc3ncnc(Nc4ccc(OCc5cccc(F)c5)c(Cl)c4)c3c2)o1 | 1.07 | 0.729
O=C(O)C(O)CO (stereo unspecified) | 1.01 | 0.968
NCCCCCCCC(=O)O | 0.938 | 1.17
C[C@@H]1CN(c2c(F)c(N)c3c(=O)c(C(=O)O)cn(C4CC4)c3c2F)C[C@H](C)N1 | 0.945 | 0.906
CCn1cc(C(=O)O)c(=O)c2cnc(N3CCCC3)nc21 | 1.16 | 1.02
CC(=O)CCc1ccc(O)cc1 | 1.01 | 1.04
COc1c(O)cc2c(c1O)C(=O)c1c(cc(C)c(O)c1OC)C2=O | 1.12 | 1.03
Nc1ccc(S(=O)(=O)Nc2nccs2)cc1 | 0.929 | 1.01
C[C@H]1[C@H](C)CC[C@]2(C(=O)O)CC[C@]3(C)C(=CC[C@@H]4[C@@]5(C)C[C@@H](O)[C@H](O)[C@@](C)(CO)[C@@H]5CC[C@]43C)[C@H]12 | 2.19 | 0.879
O=C(O)c1cc(=O)[nH]c(=O)[nH]1 | 1.15 | 1
CCC(O)C(=O)O (stereo unspecified) | 0.897 | 0.855
CN(C)[C@@H]1C(O)=C(C(N)=O)C(=O)[C@@]2(O)C(O)=C3C(=O)c4c(O)ccc(Cl)c4[C@@](C)(O)[C@H]3C[C@@H]12 | 0.875 | 0.757
CC1=C[C@H](O)CC(C)(C)[C@H]1/C=C/C(C)=C/C=C/C(C)=C/C=C/C=C(C)/C=C/C=C(C)/C=C/C1=C(C)C[C@@H](O)CC1(C)C | 0.934 | 0.927
O=C(O)C1=C(CSc2nnnn2CS(=O)(=O)O)CS[C@@H]2[C@H](NC(=O)[C@H](O)c3ccccc3)C(=O)N12 | 0.999 | 0.628
CC(=O)O[C@@]12CO[C@@H]1C[C@H](O)[C@@]1(C)C(=O)[C@H](O)C3=C(C)[C@@H](OC(=O)[C@H](O)[C@@H](NC(=O)OC(C)(C)C)c4ccccc4)C[C@@](O)([C@@H](OC(=O)c4ccccc4)[C@H]21)C3(C)C | 0.64 and 0.88 | 0.677 and 0.742
O=c1ccn([C@H]2C[C@H](O)[C@@H](CO)O2)c(=O)[nH]1 | 0.978 | 0.915
Oc1ccc2c(c1)OCO2 | 1.07 | 0.902
C[C@@H]1[C@H]2[C@H](O[C@@H]3O[C@H](CO)[C@@H](O)[C@H](O)[C@H]3O)OC=C(C(=O)O)[C@H]2C[C@@H]1O | 1.2 | 0.883
